Measured values as given in paper PMC5223110.
These are yes or no findings as the source states them, for the method shown. For some assays here: In cells and extracts the contact can be indirect. Some binding calls cover weakened binding; strength is not graded here. Where a sequence is shown, tags or fusion partners need not be part of it.

The chains behind the UniProt entries cited, without tags or fusion partners.
UniProt Q96GD4: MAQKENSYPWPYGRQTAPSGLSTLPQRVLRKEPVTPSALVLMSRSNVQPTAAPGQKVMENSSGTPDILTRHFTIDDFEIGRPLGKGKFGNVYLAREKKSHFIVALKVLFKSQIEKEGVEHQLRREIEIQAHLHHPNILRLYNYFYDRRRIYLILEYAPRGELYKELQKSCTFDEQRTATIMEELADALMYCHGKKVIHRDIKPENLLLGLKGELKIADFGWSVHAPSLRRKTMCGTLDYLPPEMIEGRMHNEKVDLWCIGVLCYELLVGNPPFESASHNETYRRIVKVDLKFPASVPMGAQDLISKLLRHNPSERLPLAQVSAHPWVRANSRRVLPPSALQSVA
UniProt P53350: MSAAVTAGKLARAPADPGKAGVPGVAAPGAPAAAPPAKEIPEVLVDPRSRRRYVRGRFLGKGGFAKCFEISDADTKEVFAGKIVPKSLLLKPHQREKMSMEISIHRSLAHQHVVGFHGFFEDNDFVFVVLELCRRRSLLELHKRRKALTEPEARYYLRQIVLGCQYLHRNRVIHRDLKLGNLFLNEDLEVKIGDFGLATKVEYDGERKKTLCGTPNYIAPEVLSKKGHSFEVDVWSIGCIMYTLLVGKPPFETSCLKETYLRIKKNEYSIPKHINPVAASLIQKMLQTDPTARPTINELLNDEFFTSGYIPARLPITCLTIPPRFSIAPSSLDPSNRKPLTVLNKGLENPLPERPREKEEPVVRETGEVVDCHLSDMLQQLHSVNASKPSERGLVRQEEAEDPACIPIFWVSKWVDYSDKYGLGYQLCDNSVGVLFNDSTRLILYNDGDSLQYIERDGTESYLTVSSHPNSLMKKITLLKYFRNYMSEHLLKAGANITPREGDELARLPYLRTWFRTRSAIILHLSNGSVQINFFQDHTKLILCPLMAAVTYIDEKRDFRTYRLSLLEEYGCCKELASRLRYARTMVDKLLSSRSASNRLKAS
UniProt Q9NQS7: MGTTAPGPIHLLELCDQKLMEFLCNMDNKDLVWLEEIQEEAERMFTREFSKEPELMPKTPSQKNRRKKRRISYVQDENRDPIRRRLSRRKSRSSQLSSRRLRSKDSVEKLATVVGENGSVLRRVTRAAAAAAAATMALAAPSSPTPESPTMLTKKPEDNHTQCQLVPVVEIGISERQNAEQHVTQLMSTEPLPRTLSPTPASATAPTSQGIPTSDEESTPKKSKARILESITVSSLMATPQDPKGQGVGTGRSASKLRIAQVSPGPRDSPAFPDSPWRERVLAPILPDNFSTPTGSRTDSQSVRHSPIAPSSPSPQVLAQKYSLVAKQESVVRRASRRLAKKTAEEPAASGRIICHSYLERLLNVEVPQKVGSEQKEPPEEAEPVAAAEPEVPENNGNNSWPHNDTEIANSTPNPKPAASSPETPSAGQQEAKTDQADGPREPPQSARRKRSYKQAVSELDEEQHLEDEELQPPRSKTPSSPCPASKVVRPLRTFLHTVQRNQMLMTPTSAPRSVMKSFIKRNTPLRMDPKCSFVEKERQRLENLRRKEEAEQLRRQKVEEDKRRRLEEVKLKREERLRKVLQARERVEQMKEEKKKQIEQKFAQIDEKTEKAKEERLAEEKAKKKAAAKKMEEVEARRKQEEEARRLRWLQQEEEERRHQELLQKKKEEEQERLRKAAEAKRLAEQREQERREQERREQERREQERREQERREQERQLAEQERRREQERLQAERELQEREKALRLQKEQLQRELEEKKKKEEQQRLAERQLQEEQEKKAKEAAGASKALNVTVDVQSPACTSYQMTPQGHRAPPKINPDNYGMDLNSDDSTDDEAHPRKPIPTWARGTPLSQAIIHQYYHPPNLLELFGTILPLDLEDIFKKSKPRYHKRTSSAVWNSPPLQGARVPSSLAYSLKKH

T1: Glutathione S-transferase (GST)-fused Aurora-A (UniProt O14965)
T1 sequence: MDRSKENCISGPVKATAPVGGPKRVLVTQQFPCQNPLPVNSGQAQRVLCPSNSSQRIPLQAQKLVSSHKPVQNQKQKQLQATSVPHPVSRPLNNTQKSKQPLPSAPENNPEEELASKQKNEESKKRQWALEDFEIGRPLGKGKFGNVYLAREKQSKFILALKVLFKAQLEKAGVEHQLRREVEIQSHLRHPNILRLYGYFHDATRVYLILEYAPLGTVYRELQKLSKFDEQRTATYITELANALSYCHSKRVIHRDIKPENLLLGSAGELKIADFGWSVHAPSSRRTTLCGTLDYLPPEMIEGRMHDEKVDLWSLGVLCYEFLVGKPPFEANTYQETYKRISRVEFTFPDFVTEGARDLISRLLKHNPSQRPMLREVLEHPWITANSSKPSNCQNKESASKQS

T2: Flag-tagged Aurora-A (UniProt O14965)
T2 sequence: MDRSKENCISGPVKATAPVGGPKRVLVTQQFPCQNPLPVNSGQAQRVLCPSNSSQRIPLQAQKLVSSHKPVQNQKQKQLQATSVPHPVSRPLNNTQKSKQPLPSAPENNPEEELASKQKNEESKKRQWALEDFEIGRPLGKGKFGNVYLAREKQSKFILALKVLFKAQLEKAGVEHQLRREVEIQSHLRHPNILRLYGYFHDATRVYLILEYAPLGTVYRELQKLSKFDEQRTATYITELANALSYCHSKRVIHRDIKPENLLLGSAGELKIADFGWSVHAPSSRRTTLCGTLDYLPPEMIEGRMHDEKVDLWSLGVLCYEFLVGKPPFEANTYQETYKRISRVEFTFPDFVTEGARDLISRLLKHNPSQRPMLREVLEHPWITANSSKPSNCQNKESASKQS


Legend:
Flag-tagged Aurora-B = Flag-tagged Aurora-B (UniProt Q96GD4); experiment: co-IP; Flag-Aurora-B co-expressed with GFP-tagged partner; 0.5 μM nocodazole with DMSO or Aurora-A inhibitor (MLN8237) for 2 h before harvest; co-IP with FLAG beads
[1] = target: T1, Glutathione S-transferase (GST)-fused Aurora-A; experiment: pull-down; GST pull-down: GST-Aurora-A held on resin, purified MBP-Haspin incubated 2 h at 4 °C, eluted with 10 mM GSH in 50 mM Tris pH 8.0; MBP-Haspin detected with a Haspin antibody; both purified
Flag-tagged Aurora-A = target: T2, Flag-tagged Aurora-A; experiment: co-IP; HEK293T cells co-transfected with Flag-tagged and GFP-tagged protein; co-IP buffer 50 mM Tris HCl pH 7.4, 250 mM NaCl, 1 mM EDTA, 50 mM NaF, 0.5% Triton X-100; anti-Flag M2 resin; GFP antibody blot

binding (Flag-tagged Aurora-B)	Molecule	other results
binds	GFP-Plk1 (from UniProt P53350 1-603) (enzyme)	
binds	wt-INCENP-EGFP (from UniProt Q9NQS7 1-918)	
	Maltose-binding protein (MBP)-fused Haspin (enzyme, UniProt Q8TF76 1-798) MAASLPGPGSRLFRTYGAADGRRQRRPGREAAQWFPPQDRRRFFNSSGSSDASIGDPSQSDDPDDPDDPDFPGSPVRRRRRRPGGRVPKDRPSLTVTPKRWKLRARPSLTVTPRRLGLRARPPQKCSTPCGPLRLPPFPSRDSGRLSPDLSVCGQPRDGDELGISASLFSSLASPCPGSPTPRDSVISIGTSACLVAASAVPSGLHLPEVSLDRASLPCSQEEATGGAKDTRMVHQTRASLRSVLFGLMNSGTPEDSEFRADGKNMRESCCKRKLVVGNGPEGPGLSSTGKRRATGQDSCQERGLQEAVRREHQEASVPKGRIVPRGIDRLERTRSSRKSKHQEATETSLLHSHRFKKGQKLGKDSFPTQDLTPLQNVCFWTKTRASFSFHKKKIVTDVSEVCSIYTTATSLSGSLLSECSNRPVMNRTSGAPSSWHSSSMYLLSPLNTLSISNKKASDAEKVYGECSQKGPVPFSHCLPTEKLQRCEKIGEGVFGEVFQTIADHTPVAIKIIAIEGPDLVNGSHQKTFEEILPEIIISKELSLLSGEVCNRTEGFIGLNSVHCVQGSYPPLLLKAWDHYNSTKGSANDRPDFFKDDQLFIVLEFEFGGIDLEQMRTKLSSLATAKSILHQLTASLAVAEASLRFEHRDLHWGNVLLKKTSLKKLHYTLNGKSSTIPSCGLQVSIIDYTLSRLERDGIVVFCDVSMDEDLFTGDGDYQFDIYRLMKKENNNRWGEYHPYSNVLWLHYLTDKMLKQMTFKTKCNTPAMKQIKRKIQEFHRTMLNFSSATDLLCQHSLFK	binding [1]: binds
	Green fluorescent protein (GFP)-fused Haspin (enzyme, UniProt Q8TF76 1-798) MAASLPGPGSRLFRTYGAADGRRQRRPGREAAQWFPPQDRRRFFNSSGSSDASIGDPSQSDDPDDPDDPDFPGSPVRRRRRRPGGRVPKDRPSLTVTPKRWKLRARPSLTVTPRRLGLRARPPQKCSTPCGPLRLPPFPSRDSGRLSPDLSVCGQPRDGDELGISASLFSSLASPCPGSPTPRDSVISIGTSACLVAASAVPSGLHLPEVSLDRASLPCSQEEATGGAKDTRMVHQTRASLRSVLFGLMNSGTPEDSEFRADGKNMRESCCKRKLVVGNGPEGPGLSSTGKRRATGQDSCQERGLQEAVRREHQEASVPKGRIVPRGIDRLERTRSSRKSKHQEATETSLLHSHRFKKGQKLGKDSFPTQDLTPLQNVCFWTKTRASFSFHKKKIVTDVSEVCSIYTTATSLSGSLLSECSNRPVMNRTSGAPSSWHSSSMYLLSPLNTLSISNKKASDAEKVYGECSQKGPVPFSHCLPTEKLQRCEKIGEGVFGEVFQTIADHTPVAIKIIAIEGPDLVNGSHQKTFEEILPEIIISKELSLLSGEVCNRTEGFIGLNSVHCVQGSYPPLLLKAWDHYNSTKGSANDRPDFFKDDQLFIVLEFEFGGIDLEQMRTKLSSLATAKSILHQLTASLAVAEASLRFEHRDLHWGNVLLKKTSLKKLHYTLNGKSSTIPSCGLQVSIIDYTLSRLERDGIVVFCDVSMDEDLFTGDGDYQFDIYRLMKKENNNRWGEYHPYSNVLWLHYLTDKMLKQMTFKTKCNTPAMKQIKRKIQEFHRTMLNFSSATDLLCQHSLFK	binding (Flag-tagged Aurora-A): binds
binds	Haspin-N-EGFP (domain or fragment, UniProt Q8TF76 1-350) MAASLPGPGSRLFRTYGAADGRRQRRPGREAAQWFPPQDRRRFFNSSGSSDASIGDPSQSDDPDDPDDPDFPGSPVRRRRRRPGGRVPKDRPSLTVTPKRWKLRARPSLTVTPRRLGLRARPPQKCSTPCGPLRLPPFPSRDSGRLSPDLSVCGQPRDGDELGISASLFSSLASPCPGSPTPRDSVISIGTSACLVAASAVPSGLHLPEVSLDRASLPCSQEEATGGAKDTRMVHQTRASLRSVLFGLMNSGTPEDSEFRADGKNMRESCCKRKLVVGNGPEGPGLSSTGKRRATGQDSCQERGLQEAVRREHQEASVPKGRIVPRGIDRLERTRSSRKSKHQEATETSL	
